Cleaved PARP in drug-treated melanoma cells

Data from the primary screen of doi:10.1371/journal.pone.0140310, rounded.

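The test systems are human melanoma cell lines, treated with two drugs together for 72 h and then stained and imaged. The read-out is the fraction of cleaved-PARP-positive nuclei, in % of that fraction in the DMSO control; 200 means twice the control level of this apoptosis marker. Concentrations were fixed for each drug; these are the higher of two levels. No replicate spread is given; individual values may be noisy. Basal and induced levels differ widely between cell lines.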 Only some of the drugs and lines screened are listed, without regard to their results. An entry leaves out what has no value listed here. A dash means that no value is listed here.

All values are for the listed drug together with everolimus (0.1 µM): CO[C@H]1C[C@@H]2CC[C@@H](C)[C@@](O)(O2)C(=O)C(=O)N2CCCC[C@H]2C(=O)O[C@H]([C@H](C)C[C@@H]2CC[C@@H](OCCO)[C@H](OC)C2)CC(=O)[C@H](C)/C=C(\C)[C@@H](O)[C@@H](OC)C(=O)[C@H](C)C[C@H](C)/C=C/C=C/C=C/1C

Compounds and concentrations:
FH535: Cc1cc([N+](=O)[O-])ccc1NS(=O)(=O)c1cc(Cl)ccc1Cl at 5 µM
AZD7762: NC(=O)Nc1cc(-c2cccc(F)c2)sc1C(=O)N[C@H]1CCCNC1 at 0.1 µM
CP-690550: C[C@@H]1CCN(C(=O)CC#N)C[C@@H]1N(C)c1ncnc2[nH]ccc12 at 5 µM
sunitinib: CCN(CC)CCNC(=O)c1c(C)[nH]c(/C=C2\C(=O)Nc3ccc(F)cc32)c1C at 2 µM
decitabine: Nc1ncn([C@H]2C[C@H](O)[C@@H](CO)O2)c(=O)n1 at 0.5 µM

Cell line,decitabine,CP-690550,sunitinib,AZD7762,FH535
MZ2-MEL,20.9,138,280,73.9,91.1
IPC-298,47.9,173,202,323,72.3
SK-MEL-30,203,227,108,310,165
WM3526,205,146,793,1560,240
501mel,-,-,-,-,149
COLO 792,102,147,242,159,267
SK-MEL-2,111,140,235,369,223
A375,256,-,94.3,-,238
UACC-62,158,165,254,180,265
COLO 829,142,56.7,173,310,243
IST-MEL1,109,36.3,122,147,156
RPMI-7951,58.6,46.2,80.4,62.9,133
A2058,292,131,581,597,110
RVH-421,99.0,65.7,82.1,98.5,57.6
UACC-257,43.5,36.3,85.6,38.4,209
MEL-HO,97.2,85.1,43.8,293,435
MeWo,82.3,103,233,279,70.0
SK-MEL-5,497,414,2850,58.9,69.6
WM3619,132,103,188,319,177
LOX IMVI,250,65.8,218,239,42.9
G-361,197,284,360,87.4,247
LB2518-MEL,83.3,214,394,659,116
WM115,129,84.3,396,439,81.6
WM451Lu,153,524,116,389,174
WM1716,44.6,86.8,70.5,557,242
A101D,165,68.3,116,52.9,124
COLO 800,298,102,71.3,104,140
C32,311,227,214,720,97.2
WM1745,88.8,77.6,185,124,-
SK-MEL-28,136,76.7,138,466,259

The first 2 entries again:

{"cell line": "MZ2-MEL", "decitabine": 20.9, "CP-690550": 138, "sunitinib": 280, "AZD7762": 73.9, "FH535": 91.1}
{"cell line": "IPC-298", "decitabine": 47.9, "CP-690550": 173, "sunitinib": 202, "AZD7762": 323, "FH535": 72.3}